# Results: PubChem BioAssay AID2551 (National Center for Advancing Translational Sciences (NCATS), 2010)
# Amino acid sequences for entries named in this document (tags omitted). A change or cut given only in a name is not applied to a line headed by its entry.
# UniProt P51450: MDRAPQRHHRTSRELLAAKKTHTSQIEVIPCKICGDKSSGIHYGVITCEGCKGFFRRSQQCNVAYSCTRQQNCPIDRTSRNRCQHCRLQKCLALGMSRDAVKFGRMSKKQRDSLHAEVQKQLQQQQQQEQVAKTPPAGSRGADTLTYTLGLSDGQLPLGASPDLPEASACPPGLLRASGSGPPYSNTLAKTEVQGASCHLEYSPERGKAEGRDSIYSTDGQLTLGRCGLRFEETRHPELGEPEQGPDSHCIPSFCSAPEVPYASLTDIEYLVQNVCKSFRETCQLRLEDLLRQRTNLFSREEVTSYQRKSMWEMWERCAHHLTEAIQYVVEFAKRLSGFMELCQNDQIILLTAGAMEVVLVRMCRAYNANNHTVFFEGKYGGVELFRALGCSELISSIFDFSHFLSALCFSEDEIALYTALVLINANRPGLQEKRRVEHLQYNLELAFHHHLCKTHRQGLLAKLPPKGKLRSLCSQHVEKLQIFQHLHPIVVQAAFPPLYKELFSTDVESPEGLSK
# Hit rate of the full screen: of about 310,000 compounds, about 17,000 (5.5%) were called active. The inconclusive results got no clear call from the source; some entries with a clear call stand among them for comparison. Calls follow the shape of the dose curve; as a rule, active = well fitted inhibition curve with a large enough effect; inconclusive = small, poorly fitted or top-dose-only effect, or effect the other way; inactive = no such curve, though single readings can be large or run the other way. Potencies beside an inconclusive call are fits to weak or partial responses and may not hold up.
# Biological target: Nuclear receptor ROR-gamma (Mus musculus) (UniProt P51450)
# Test: qHTS for inhibitors of ROR gamma transcriptional activity; also: nearly all actives have a fitted effect of over 60% in size
# Settings: Drosophila S2 Gal4-RORgamma UAS-luciferase reporter, 20 h; series mostly up to 53.6 µM
# Outline: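 ROR gamma transcriptional activity was tracked as Gal4-UAS luciferase output in stably transfected Drosophila Schneider cells, with compound added 1 hr before 700 uM copper sulfate induction and a 20 hr ambient-temperature incubation.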
# Potency is read from the fitted curve at half-maximal effect.
row,SMILES,Potency
1,O=C(CCC(=O)N/N=C/c1ccccc1O)NCc1ccccc1,active: 20 µM
2,CCN(CC)c1ccc(/C=N/N2C(=O)c3ccccc3C2=O)cc1,"inconclusive: 2.24 µM [activator, full curve]"
3,CC(C)(C)c1ccc(C(=O)c2c[nH]c(C(=O)NCCCn3ccnc3)c2)cc1,"inconclusive: 35.5 µM [inhibitor, single point]"
4,O=C(Nc1nc(-c2ccccc2)c(-c2ccccc2)o1)c1ccc(F)cc1,active: 1.41 µM
5,C1=C(CCNc2ncnc3c2cnn3-c2ccccc2)CCCC1,"inconclusive: 0.141 µM [activator, full curve, poor fit]"
6,CC(=O)c1cccc(NC(=O)C2C3C=CC(C4CC34)C2C(=O)O)c1 (stereo unspecified),"inconclusive: 0.141 µM [inhibitor, full curve, poor fit]"
7,COc1ccc(C=O)c2[nH]c3c(Cl)ncnc3c12,inactive
8,S=C(Nc1ccc(Br)cc1)NC1CCN(Cc2ccccc2)CC1,"inconclusive: 17.8 µM [inhibitor, single point]"
9,CCOc1ccc(Br)cc1/C=N/NC(=O)c1ccncc1,"inconclusive: 0.501 µM [inhibitor, full curve, poor fit]"
10,Cc1cc(NC(=O)c2ccc(S(=O)(=O)N(C)CC3CCCO3)cc2)no1 (stereo unspecified),"inconclusive: 35.5 µM [inhibitor, single point]"
11,COc1ccc(CCNC(=O)C(=O)NCC2OCCN2S(=O)(=O)c2ccc(Br)cc2)cc1OC (stereo unspecified),"inconclusive: 3.98 µM [activator, partial curve]"
12,CCOC(=O)Cc1csc(NC(=O)CSc2nnc(-c3ccc(F)cc3)o2)n1,active: 3.98 µM
13,CC(=O)c1cccc(OCC(=O)c2cc(C)n(-c3cc(C)on3)c2C)c1,"inconclusive: 22.4 µM [inhibitor, single point]"
14,CCOC(=O)c1c(NC(=O)CN2CCN(C)CC2)sc(C(=O)Nc2ccccc2)c1C,inactive
15,CCOC(=O)C(=NC1CCS(=O)(=O)C1)NNc1cc(Cl)ccc1Cl (stereo unspecified),inactive
16,O=C1NC(c2ccc(Cl)cc2)Nc2ccccc21 (stereo unspecified),"inconclusive: 35.5 µM [activator, single point]"
17,CCOC(=O)N1CCC(NC(=O)C2CCCN(Cc3nc(-c4cccc(Cl)c4)oc3C)C2)CC1 (stereo unspecified),"inconclusive: 3.55 µM [activator, single point]"
18,Cc1cc(NC(=O)CCSc2nc(-c3ccco3)cc(C(F)(F)F)n2)n(-c2ccccc2)n1,"inconclusive: 5.62 µM [activator, single point]"
19,Cc1cccc(C)c1NC(=O)CN1C(=O)S/C(=C\c2cccn2-c2cccc(C(=O)O)c2)C1=O,inactive
20,CCCCC(=O)Nc1nnn(CCC)n1,inactive
21,COc1ccccc1NS(=O)(=O)c1cccc(C(=O)NN=C2CCCCCC2)c1,"inconclusive: 11.2 µM [inhibitor, partial curve]"
22,CCOc1ccc(C(=O)N/N=C(\c2ccccc2)c2ccccn2)cc1,active: 0.199 µM
23,CCOc1c2ccc(C(=O)NCc3ccc(C(F)(F)F)cc3C(F)(F)F)cc2nn1C,"inconclusive: 7.08 µM [inhibitor, single point]"
24,COc1ccc(NC(=O)CSC2CC(=O)N(c3ccc4c(c3)OCCO4)C2=O)cc1 (stereo unspecified),"inconclusive: 25.1 µM [inhibitor, single point]"
25,O=C1c2ccc(O)c(O)c2C(=O)c2c(O)ccc(O)c21,"inconclusive: 0.158 µM [inhibitor, full curve, poor fit]"
26,CCC(C)O (stereo unspecified),inactive

# Arranged by formula weight (low to high): part of the list above
row,SMILES,Potency
5,C1=C(CCNc2ncnc3c2cnn3-c2ccccc2)CCCC1,"inconclusive: 0.141 µM [activator, full curve, poor fit]"
2,CCN(CC)c1ccc(/C=N/N2C(=O)c3ccccc3C2=O)cc1,"inconclusive: 2.24 µM [activator, full curve]"
8,S=C(Nc1ccc(Br)cc1)NC1CCN(Cc2ccccc2)CC1,"inconclusive: 17.8 µM [inhibitor, single point]"
24,COc1ccc(NC(=O)CSC2CC(=O)N(c3ccc4c(c3)OCCO4)C2=O)cc1 (stereo unspecified),"inconclusive: 25.1 µM [inhibitor, single point]"
17,CCOC(=O)N1CCC(NC(=O)C2CCCN(Cc3nc(-c4cccc(Cl)c4)oc3C)C2)CC1 (stereo unspecified),"inconclusive: 3.55 µM [activator, single point]"

# Continued.

row,SMILES,Potency
1,Cc1ccc(NC(=O)CN(C)C(=O)Cc2ccc(Cl)cc2Cl)cc1,inactive
2,Cn1c(-c2nnn(-c3ccc(F)cc3)n2)cc2ccccc21,"inconclusive: 1.78 µM [inhibitor, full curve]"
3,O=C(c1ccc(S(=O)(=O)NCC2CCCO2)cc1)N1CCN(c2cccc(Cl)c2)CC1 (stereo unspecified),"inconclusive: 28.2 µM [inhibitor, single point]"
4,O=C(CSc1nnc(-c2cnccn2)n1Cc1ccco1)c1ccc(Cl)cc1,active: 10 µM
5,Cc1nn(C)cc1/C=N/NC(=O)c1sc2ccccc2c1Cl,"inconclusive: 0.224 µM [inhibitor, full curve, poor fit]"
6,C=C1CCN(C(CC(C)C)C(=O)NCc2ccc(Cl)cc2)S(=O)(=O)c2ccccc21 (stereo unspecified),inactive
7,Cc1nc2nc[nH]c2cc1Br,inactive
8,O=C(NC1CCCC1)C(c1ccccn1)N(C(=O)c1csnn1)c1ccccc1F (stereo unspecified),"inconclusive: 11.2 µM [inhibitor, single point]"
9,COc1ccccc1CN1CC(C(=O)NCc2nccn2C)CCC1=O (stereo unspecified),inactive
10,COc1cc(NC(=O)c2c(F)cccc2F)c(Cl)cc1Cl,"inconclusive: 4.47 µM [activator, partial curve]"
11,S=c1[nH]nc(CSCCOc2ccc(Cl)cc2Cl)o1,active: 3.98 µM
12,CC(C)CNC(=O)CSc1ccc(Cl)cc1,inactive
13,CCCC(=O)C1=C(N2CCCCC2)CC(C)(C)C(C(=O)OC)C1=O (stereo unspecified),inactive
14,O=C(/C=C/c1ccc(OCCCF)cc1)Nc1ccnc(-c2cccnc2)n1,inactive
15,CC(C)[C@H](NC(=O)N1CCn2c1nc1ccccc12)C(=O)N1CCCCC1,inactive
16,COc1ccc(NS(=O)(=O)c2cccc(NC(=O)c3ccccn3)c2)cc1,"inconclusive: 7.94 µM [activator, partial curve]"
17,CCOCCCNC(=S)N1CCCN(c2nc3cc(C)cc(C)c3cc2C#N)CC1,"inconclusive: 14.1 µM [inhibitor, single point]"
18,COc1cc(/C=C/c2cc(C(F)(F)F)[nH]c(=O)n2)cc(OC)c1OC,"inconclusive: 28.2 µM [inhibitor, single point]"
19,C=C(C(C)=O)C(O)c1ccc([N+](=O)[O-])cc1 (stereo unspecified),"inconclusive: 14.1 µM [inhibitor, single point]"
20,COCCn1c(SCC(=O)NCc2ccccc2)nnc1-c1ccco1,"inconclusive: 17.8 µM [inhibitor, single point]"
21,CC(C)COP(=O)(OCC(C)C)C(Nc1ccccc1)c1ccc(F)cc1 (stereo unspecified),"inconclusive: 35.5 µM [activator, single point]"
22,CCC(CC)c1nnc(NC(=O)c2cccc(S(=O)(=O)N3CCc4ccccc43)c2)s1,active: 15.8 µM
23,O=C(Nc1ccc(S(=O)(=O)NCC2CCCO2)cc1)c1cccc(F)c1 (stereo unspecified),"inconclusive: 22.4 µM [activator, single point]"
24,Cc1ccc(C)c(S(=O)(=O)NCc2ccncc2)c1,"inconclusive: 12.6 µM [activator, partial curve]"
25,CCOC(=O)n1c(SCC(N)=O)nc2ccccc21,inactive
26,Cc1noc(/C=C/N(C)C)c1S(=O)(=O)N1CCC(C(=O)Nc2ccc(Cl)cc2)CC1,inactive

row,SMILES,Potency
1,COC(=O)Cc1ccc(NC(=S)NCc2ccccc2)cc1,"inconclusive: 22.4 µM [inhibitor, single point]"
2,CC(O)CNCc1ccc(Cl)cc1Cl (stereo unspecified),inactive
3,Cc1ccc(C(=O)NCCc2nnc3ccc(SCC(=O)NCc4ccc(F)cc4)nn23)cc1,inactive
4,O=C(CCNC(=O)Cn1ccc2ccccc2c1=O)NCCN1CCN(c2cccc(Cl)c2)CC1,"inconclusive: 35.5 µM [activator, single point]"
5,Cc1cccc(NC(=S)Nc2cccc(C(F)(F)F)c2)n1,active: 1 µM
6,CC(C)c1ccc(/C=C(\c2nc3ccccc3[nH]2)S(=O)(=O)c2ccccc2)cc1,"inconclusive: 35.5 µM [inhibitor, single point]"
7,O=C(Nc1cc(Oc2ccc(Cl)cc2)cc([N+](=O)[O-])c1)c1ccco1,"inconclusive: 28.2 µM [inhibitor, single point]"
8,COC(=O)CCC(=O)Nc1cccc([N+](=O)[O-])c1,inactive
9,CC(=O)NS(=O)(=O)c1ccc(NC(=O)COc2ccc(C(=O)c3ccccc3)cc2)cc1,inactive
10,Nc1ccn([C@H]2CC[C@@H](CO)O2)c(=O)n1,inactive
11,CN1CCN(c2nc(-c3ccccc3O)nc3ccccc23)CC1,active: 8.91 µM
12,Cc1cccc(NC(=S)NC(NC(=O)OCc2ccccc2)C(Cl)(Cl)Cl)c1 (stereo unspecified),active: 11.2 µM
13,O=C(Nc1ccc(Cl)cc1)N1CCc2ccccc2C1,active: 0.891 µM
14,COc1ccc(/C=N/Nc2nccnc2Cl)c(OC)c1,"inconclusive: 20 µM [inhibitor, single point]"
15,COc1ccc(CNc2nc(-c3ccc(C(=O)N(C)C)cc3)nc3ccccc23)c(OC)c1,"inconclusive: 10 µM [activator, partial curve]"
16,COc1ccc2cc(C(=O)NCc3ccco3)c(=Nc3ccc(C(=O)O)cc3)oc2c1,active: 1.12 µM
17,Cc1cc2oc(=O)cc(-c3ccccc3)c2c(C)c1-c1ccc(O)cc1,inactive
18,Cc1nc(SCC(=O)c2ccc(F)c(F)c2)[nH]c(=O)c1Oc1ccc(F)cc1,"inconclusive: 14.1 µM [activator, partial curve]"
19,Cn1cc(C(=O)C(=O)N2CCN(c3ccccc3)CC2)c2ccccc21,"inconclusive: 11.2 µM [activator, partial curve]"
20,c1cncc(-c2noc(CC3CCCCC3)n2)c1,"inconclusive: 11.2 µM [activator, single point]"
21,O=C1NC(=O)C2(CCc3ccccc32)N1 (stereo unspecified),inactive
22,O=C(CC(Nc1ccccc1)C(=O)O)c1ccccc1 (stereo unspecified),active: 11.2 µM
23,c1ccc2c(-c3nc(-c4ccncc4)no3)cccc2c1,inactive
24,COc1cc(C=O)ccc1OC(=O)c1ccc(C(C)C)cc1,"inconclusive: 12.6 µM [inhibitor, single point]"
